Data reported in article PMC7862700.
This is a selection; strong and weak results do not stand in their true shares. At the low end of the ranking the order means little.

The chains behind the UniProt entries cited, without tags or fusion partners. Where a name states a change or a piece, a line headed by the entry shows the natural chain unless it says otherwise.
UniProt Q01892: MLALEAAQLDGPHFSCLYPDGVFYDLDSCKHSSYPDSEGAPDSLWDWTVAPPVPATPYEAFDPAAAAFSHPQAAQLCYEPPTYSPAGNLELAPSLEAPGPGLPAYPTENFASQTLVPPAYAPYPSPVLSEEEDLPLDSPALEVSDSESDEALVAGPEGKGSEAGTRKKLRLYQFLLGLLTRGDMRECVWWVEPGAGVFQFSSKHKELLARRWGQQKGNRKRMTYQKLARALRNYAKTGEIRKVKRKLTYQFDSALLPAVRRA
UniProt P41161: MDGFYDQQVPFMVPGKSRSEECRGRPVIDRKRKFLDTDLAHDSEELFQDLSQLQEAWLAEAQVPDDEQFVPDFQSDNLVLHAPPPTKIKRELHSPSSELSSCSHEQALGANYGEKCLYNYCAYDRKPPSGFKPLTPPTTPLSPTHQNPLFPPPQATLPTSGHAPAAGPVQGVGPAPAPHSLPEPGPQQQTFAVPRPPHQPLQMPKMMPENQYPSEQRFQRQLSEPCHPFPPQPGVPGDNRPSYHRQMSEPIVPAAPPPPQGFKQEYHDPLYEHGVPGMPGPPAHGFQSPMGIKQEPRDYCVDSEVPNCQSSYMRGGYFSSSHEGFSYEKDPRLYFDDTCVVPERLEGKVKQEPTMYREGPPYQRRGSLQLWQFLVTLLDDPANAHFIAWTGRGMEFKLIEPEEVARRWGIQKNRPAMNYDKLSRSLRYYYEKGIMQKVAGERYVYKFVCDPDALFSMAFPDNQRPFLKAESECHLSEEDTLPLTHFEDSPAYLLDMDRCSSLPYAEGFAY
UniProt Q99607: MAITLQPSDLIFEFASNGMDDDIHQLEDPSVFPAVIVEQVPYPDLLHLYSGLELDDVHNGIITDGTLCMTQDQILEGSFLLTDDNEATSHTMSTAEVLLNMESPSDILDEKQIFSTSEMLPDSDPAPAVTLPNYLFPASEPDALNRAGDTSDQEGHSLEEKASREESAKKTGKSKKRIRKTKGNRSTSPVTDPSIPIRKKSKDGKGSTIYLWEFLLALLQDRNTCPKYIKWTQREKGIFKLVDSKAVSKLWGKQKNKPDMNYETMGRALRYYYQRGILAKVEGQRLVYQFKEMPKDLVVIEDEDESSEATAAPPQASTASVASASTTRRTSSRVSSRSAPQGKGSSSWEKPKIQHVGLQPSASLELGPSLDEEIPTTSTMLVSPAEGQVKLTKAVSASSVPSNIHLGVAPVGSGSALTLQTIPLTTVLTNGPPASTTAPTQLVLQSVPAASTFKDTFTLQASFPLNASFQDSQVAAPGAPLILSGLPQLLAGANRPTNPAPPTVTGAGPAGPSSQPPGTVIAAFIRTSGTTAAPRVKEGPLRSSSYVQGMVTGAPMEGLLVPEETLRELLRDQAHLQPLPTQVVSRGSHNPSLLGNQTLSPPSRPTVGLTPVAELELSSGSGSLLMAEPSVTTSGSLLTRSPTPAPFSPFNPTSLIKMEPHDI

Tests used:
Assay in all cases: DAPPL (digital affinity profiling via proximity ligation, sequencing)
Details in all cases: 10 mM Tris-HCl pH 7.5, 50 mM NaCl, 1 mM DTT, 4% glycerol, room temperature, 30 min; GST-TFs on glutathione beads, 16-mer random dsDNA library, 0.1% …; high values mean tight binding; double strand, one strand shown; scale: fold enrichment (6-mer frequency, TF over GST control)
FLI1 = target: T1, FLI1 (UniProt Q01543)
T1 sequence: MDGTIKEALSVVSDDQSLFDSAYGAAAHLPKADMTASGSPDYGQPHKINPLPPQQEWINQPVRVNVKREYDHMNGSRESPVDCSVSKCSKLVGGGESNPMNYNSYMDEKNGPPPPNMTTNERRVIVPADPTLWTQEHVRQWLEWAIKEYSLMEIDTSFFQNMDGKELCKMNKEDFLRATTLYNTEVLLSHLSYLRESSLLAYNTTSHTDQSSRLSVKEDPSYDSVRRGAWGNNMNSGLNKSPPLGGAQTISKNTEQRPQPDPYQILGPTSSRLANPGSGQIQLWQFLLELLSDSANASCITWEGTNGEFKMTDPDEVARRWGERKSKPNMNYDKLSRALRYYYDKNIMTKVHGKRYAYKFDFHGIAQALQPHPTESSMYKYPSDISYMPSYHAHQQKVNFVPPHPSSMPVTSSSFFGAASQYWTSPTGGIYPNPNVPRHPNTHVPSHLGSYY

EHF = target: T2, EHF (UniProt Q9NZC4)
T2 sequence: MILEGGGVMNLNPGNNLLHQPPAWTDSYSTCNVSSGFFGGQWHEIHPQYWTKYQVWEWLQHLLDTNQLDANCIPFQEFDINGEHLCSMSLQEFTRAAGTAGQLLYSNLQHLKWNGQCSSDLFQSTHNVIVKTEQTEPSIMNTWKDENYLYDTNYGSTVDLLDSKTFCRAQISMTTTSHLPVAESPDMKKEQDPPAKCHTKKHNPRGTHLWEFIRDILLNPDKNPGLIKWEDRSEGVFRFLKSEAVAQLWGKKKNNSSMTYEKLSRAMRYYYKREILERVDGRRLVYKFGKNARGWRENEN

SPIB = SPIB (UniProt Q01892)
ETV5 = ETV5 (UniProt P41161)
ELF4 = ELF4 (UniProt Q99607)
ETV2 = target: T3, ETV2 (UniProt O00321)
T3 sequence: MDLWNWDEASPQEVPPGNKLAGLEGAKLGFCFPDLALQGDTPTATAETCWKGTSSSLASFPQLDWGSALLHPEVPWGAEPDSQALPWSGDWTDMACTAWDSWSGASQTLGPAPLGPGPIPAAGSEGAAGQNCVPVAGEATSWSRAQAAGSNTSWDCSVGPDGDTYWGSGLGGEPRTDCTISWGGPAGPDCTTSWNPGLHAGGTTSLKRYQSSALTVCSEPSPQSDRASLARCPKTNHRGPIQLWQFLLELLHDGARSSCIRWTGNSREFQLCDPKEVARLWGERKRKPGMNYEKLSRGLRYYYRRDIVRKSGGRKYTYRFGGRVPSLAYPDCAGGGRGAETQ

ETV3L = target: T4, ETV3L (UniProt Q6ZN32)
T4 sequence: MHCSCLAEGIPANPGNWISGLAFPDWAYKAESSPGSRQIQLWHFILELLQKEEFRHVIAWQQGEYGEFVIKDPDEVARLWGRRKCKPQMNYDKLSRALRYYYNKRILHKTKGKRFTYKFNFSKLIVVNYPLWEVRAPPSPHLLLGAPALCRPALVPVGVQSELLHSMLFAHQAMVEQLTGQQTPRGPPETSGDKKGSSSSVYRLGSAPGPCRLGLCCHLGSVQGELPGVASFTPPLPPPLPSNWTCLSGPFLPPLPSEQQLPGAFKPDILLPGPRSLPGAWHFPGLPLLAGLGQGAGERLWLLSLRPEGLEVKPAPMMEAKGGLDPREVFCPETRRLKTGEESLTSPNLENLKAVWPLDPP

Sequence | binding signal (FLI1) | binding signal (EHF) | binding signal (SPIB) | binding signal (ETV5) | binding signal (ELF4) | binding signal (ETV2) | binding signal (ETV3L)
AGCCGA | 0.798 | 0.792 | 0.792 | 0.768 | 0.836 | 0.893 | 0.881
AACAGT | 0.662 | 0.698 | 0.734 | 0.686 | 0.66 | 0.736 | 0.646
ATGAGT | 0.729 | 0.767 | 0.601 | 0.706 | 0.692 | 0.775 | 0.722
GTGCGT | 0.613 | 0.613 | 0.588 | 0.59 | 0.601 | 0.74 | 0.598
AGGCCA | 0.633 | 0.712 | 0.607 | 0.65 | 0.676 | 0.679 | 0.642
CACGAG | 0.924 | 0.926 | 0.802 | 0.839 | 0.926 | 0.795 | 0.891
GTGGGC | 0.761 | 0.756 | 0.708 | 0.708 | 0.684 | 0.629 | 0.701
AAGAGT | 0.879 | 0.966 | 0.868 | 0.885 | 0.918 | 0.906 | 0.842
CAGTCT | 0.794 | 0.76 | 0.747 | 0.693 | 0.755 | 0.709 | 0.705
GTGAAC | 0.813 | 0.885 | 0.797 | 0.833 | 0.837 | 0.765 | 0.908
GGAGCC | 0.337 | 0.304 | 0.318 | 0.343 | 0.333 | 0.338 | 0.307
CGCCGT | 0.948 | 0.917 | 0.833 | 0.84 | 0.943 | 0.821 | 0.876
GTGTGT | 0.581 | 0.529 | 0.541 | 0.579 | 0.503 | 0.544 | 0.518
CCAGTT | 0.594 | 0.597 | 0.681 | 0.646 | 0.638 | 0.617 | 0.653
GCTGAG | 0.63 | 0.701 | 0.696 | 0.684 | 0.709 | 0.65 | 0.692
CGAGTG | 0.806 | 0.821 | 0.714 | 0.762 | 0.907 | 0.984 | 0.865
ACAGTC | 0.439 | 0.431 | 0.442 | 0.419 | 0.411 | 0.454 | 0.425
AGAGCA | 0.792 | 0.715 | 0.695 | 0.725 | 0.767 | 0.827 | 0.724
CCCGTG | 0.527 | 0.529 | 0.555 | 0.549 | 0.563 | 0.536 | 0.522
CAGGTA | 0.821 | 0.731 | 0.801 | 0.809 | 0.831 | 0.815 | 0.738

Sequence | binding signal (FLI1) | binding signal (EHF) | binding signal (SPIB) | binding signal (ETV5) | binding signal (ELF4) | binding signal (ETV2) | binding signal (ETV3L)
CGCATA | 0.756 | 0.713 | 0.743 | 0.752 | 0.737 | 0.654 | 0.735
AGAGGT | 0.762 | 0.868 | 0.886 | 0.892 | 0.852 | 0.775 | 0.756
GATTGT | 0.885 | 0.718 | 0.88 | 0.837 | 0.859 | 0.844 | 0.893
GAGTCT | 0.417 | 0.433 | 0.356 | 0.376 | 0.393 | 0.396 | 0.433
GCGGCG | 0.713 | 0.738 | 0.74 | 0.755 | 0.789 | 0.72 | 0.782
AGGCAA | 0.796 | 0.75 | 0.709 | 0.708 | 0.737 | 0.707 | 0.747
CGCTGA | 0.909 | 0.889 | 1.01 | 0.876 | 0.858 | 0.765 | 0.841
GGGCCA | 0.704 | 0.742 | 0.67 | 0.688 | 0.678 | 0.735 | 0.717
CAGCAG | 0.85 | 0.852 | 0.833 | 0.803 | 0.892 | 0.845 | 0.822
TCGGTA | 0.577 | 0.597 | 0.592 | 0.584 | 0.628 | 0.566 | 0.607
AGGGAG | 0.366 | 0.341 | 0.342 | 0.396 | 0.362 | 0.36 | 0.357
CGTAGG | 0.697 | 0.657 | 0.65 | 0.694 | 0.703 | 0.632 | 0.67
AAGACG | 0.784 | 0.783 | 0.807 | 0.83 | 0.785 | 0.693 | 0.797
CGGTCA | 0.798 | 0.816 | 0.91 | 0.764 | 0.806 | 0.94 | 0.851
GTCTGC | 0.96 | 0.957 | 0.951 | 0.825 | 0.872 | 0.849 | 0.957
GCGGTC | 0.631 | 0.719 | 0.672 | 0.633 | 0.676 | 0.715 | 0.679
GCCAAG | 0.84 | 0.861 | 0.779 | 0.841 | 0.883 | 0.814 | 0.859
GTCGTA | 0.63 | 0.569 | 0.601 | 0.601 | 0.618 | 0.69 | 0.566
AGCAGG | 0.876 | 0.863 | 0.861 | 0.951 | 0.899 | 0.953 | 0.81
CAGTGT | 0.706 | 0.684 | 0.673 | 0.707 | 0.722 | 0.693 | 0.757

Sequence | binding signal (FLI1) | binding signal (EHF) | binding signal (SPIB) | binding signal (ETV5) | binding signal (ELF4) | binding signal (ETV2) | binding signal (ETV3L)
AGAACG | 0.411 | 0.442 | 0.424 | 0.45 | 0.474 | 0.486 | 0.454
GAATCG | 0.619 | 0.57 | 0.616 | 0.684 | 0.574 | 0.476 | 0.605
AAGCCA | 0.88 | 0.826 | 0.839 | 0.911 | 0.903 | 0.837 | 0.849
CACCAG | 0.76 | 0.734 | 0.733 | 0.733 | 0.786 | 0.722 | 0.785
GTAGGT | 0.864 | 0.786 | 0.807 | 0.81 | 0.846 | 0.844 | 0.773
TGGAGA | 0.43 | 0.41 | 0.386 | 0.428 | 0.413 | 0.388 | 0.423
GGGGGT | 0.51 | 0.518 | 0.543 | 0.475 | 0.527 | 0.591 | 0.603
AGAGTC | 0.433 | 0.414 | 0.394 | 0.437 | 0.453 | 0.445 | 0.475
TGCCGT | 0.869 | 0.898 | 0.848 | 0.837 | 0.886 | 0.895 | 0.824
GGACAG | 0.585 | 0.588 | 0.559 | 0.602 | 0.556 | 0.523 | 0.565
GGAGAG | 0.277 | 0.276 | 0.23 | 0.289 | 0.29 | 0.244 | 0.261
CGTGCG | 0.69 | 0.623 | 0.689 | 0.682 | 0.621 | 0.714 | 0.616
CAGTAG | 0.643 | 0.657 | 0.569 | 0.564 | 0.568 | 0.638 | 0.636
GGGACT | 0.664 | 0.677 | 0.649 | 0.654 | 0.692 | 0.738 | 0.632
GATCAG | 0.736 | 0.769 | 0.682 | 0.717 | 0.735 | 0.751 | 0.791
GAGATG | 0.655 | 0.657 | 0.658 | 0.743 | 0.657 | 0.729 | 0.649
GGTGCA | 0.848 | 0.858 | 0.976 | 0.903 | 0.94 | 0.831 | 0.861
GCAAGT | 0.843 | 0.817 | 0.819 | 0.806 | 0.824 | 0.735 | 0.852
AGTCCG | 0.586 | 0.577 | 0.597 | 0.583 | 0.52 | 0.549 | 0.606
TGTGTG | 0.845 | 0.758 | 0.893 | 0.943 | 0.862 | 0.873 | 0.966

Single records, from the list above. Order of values: binding signal (FLI1)	binding signal (EHF)	binding signal (SPIB)	binding signal (ETV5)	binding signal (ELF4)	binding signal (ETV2)	binding signal (ETV3L)
CACCAG as listed: 0.76	0.734	0.733	0.733	0.786	0.722	0.785
GCAAGT as listed: 0.843	0.817	0.819	0.806	0.824	0.735	0.852
CAGTAG as listed: 0.643	0.657	0.569	0.564	0.568	0.638	0.636
GATCAG as listed: 0.736	0.769	0.682	0.717	0.735	0.751	0.791
